Results from PubChem BioAssay AID1487 (National Center for Advancing Translational Sciences (NCATS), 2009).
This is one part of the list. Shown are side measurements of this screen, not its main read-out; they come without a call. Compounds called inactive in the main read-out are mostly missing here. Words in brackets tell the shape of the fitted curve; partial curves, single points and poor fits give uncertain potencies.

Experiment: qHTS Assay for Modulators of Lamin A Splicing
Conditions: HeLa LMNA splicing GFP/RFP minigene ratio, 48 h
In short: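 S3 HeLa stable clones carrying a lamin A-EGFP splicing minigene plus DsRed2 were seeded at 600 cells/well in Opti-MEM with 2% FBS, pin-dosed and incubated 48 h at 37°C. Acumen cytometry (488 nm) gave the GFP/RFP total-intensity ratio.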

[1] = measured here: RFP viability control channel
[2] = measured here: GFP splicing reporter channel

Row | SMILES | AC50 [1] | AC50 [2]
1 | CN(C)C(C)(C)C#CCCCCC#CC(C)(C)N(C)C | 0.355 µM [rising, full curve, poor fit] | 
2 | S=C(Nc1ccccc1)Nc1nc2ccccc2n1CCOc1ccc(Cl)cc1 | 35.5 µM [falling, single point] | 35.5 µM [falling, single point]
3 | Cc1cc(C)cc(NC(=O)CN(C)S(=O)(=O)c2ccc3[nH]c4c(c3c2)CCCC4)c1 | 0.02 µM [rising, full curve, poor fit] | 0.0224 µM [rising, partial curve, poor fit]
4 | CC(C)OCCCNC(=O)C1CCC(CNS(=O)(=O)c2ccc(Cl)cc2)CC1 (stereo not drawn) | 35.5 µM [rising, single point] | 35.5 µM [rising, single point]
5 | CCCc1nc2ccccc2c(=O)n1/N=C/c1c(C)[nH]n(-c2ccc(C)cc2)c1=O | 15.8 µM [rising, partial curve] | 
6 | Cc1ccccc1OCC(=O)N/N=C1\SCC(=O)N1Cc1ccccc1 | 12.6 µM [rising, partial curve] | 
7 | COc1cc(/C=C(/C#N)c2ccc(C)cc2)ccc1Oc1ccc([N+](=O)[O-])cn1 | 15.8 µM [rising, single point] | 
8 | COc1ccc(NS(=O)(=O)c2cc(NC(=O)c3ccco3)ccc2N2CCCC2)cc1 | 35.5 µM [rising, single point] | 
9 | Cc1ccc(NC(=O)C2CCCN(S(=O)(=O)c3c(C)noc3C)C2)cc1F (stereo not drawn) | 31.6 µM [rising, single point] | 31.6 µM [rising, single point]
10 | CN(C)c1cc2c(Nc3ccc4c(cnn4Cc4ccccc4)c3)ncnc2cn1 | 0.00447 µM [falling, full curve, poor fit] | 0.00355 µM [falling, full curve, poor fit]
11 | Cc1ccc(-c2nc(-c3cccnc3)sc2CC(=O)Nc2ccc(C)c(Cl)c2)cc1 | 22.4 µM [rising, single point] | 14.1 µM [rising, single point]
12 | S=C(NCCCN1CCOCC1)Nc1ccc(Nc2ccccc2)cc1 | 22.4 µM [rising, single point] | 
13 | CCSc1nc2sc3c(c2c(=O)n1C1CCCCC1)CCN(C)C3 | 22.4 µM [rising, partial curve] | 14.1 µM [rising, single point]
14 | O=C(Nc1ccc2c(c1)N(C1CCCC1)C(=O)c1ccccc1S2)c1cccc(F)c1 |  | 17.8 µM [falling, partial curve, poor fit]
15 | CC(C)Oc1ccc(CNC(=O)CCn2c(=O)c3cccn3c3ccc(F)cc32)cc1 | 0.112 µM [rising, full curve] | 0.112 µM [rising, full curve, poor fit]
16 | COc1ccc(COc2cc(-c3cccc(OC)c3)nc3ccc(NC(=O)c4ccccc4)cc23)cc1 |  | 1.58 µM [falling, partial curve, poor fit]
17 | COc1cc(/C=N/NC(=S)Nc2cccc(C(=O)O)c2)cc(OC)c1OC | 0.708 µM [falling, full curve, poor fit] | 
18 | CC(C)c1ccc2c(c1)C1(NN=C(c3ccccc3)S1)C(=O)N2 (stereo not drawn) | 5.01 µM [rising, partial curve] | 
19 | O=C(NCCc1csc(-c2cccc(F)c2)n1)c1ccc(Br)o1 | 0.00355 µM [falling, full curve, poor fit] | 3.55 µM [falling, partial curve]
20 | CCCCC12CN3CC(C)(CN(C1)C31C(=O)N(C)c3ccc(C)cc31)C2=O (stereo not drawn) | 14.1 µM [rising, partial curve] | 
21 | COc1c(N2CCN(C(=S)NCc3ccccc3)C(C)C2)c(F)cc2c(=O)c(C(=O)O)cn(C3CC3)c12 (stereo not drawn) | 14.1 µM [rising, single point] | 
22 | COc1ccc2[nH]cc(C(=O)CNc3nc(C)cs3)c2c1 | 12.6 µM [rising, single point] | 
23 | Clc1ccc(-c2cn3c(n2)CCC3)cc1 | 15.8 µM [rising, single point] | 
24 | CCOC(=O)c1c(C)c(C(=O)N2CCN(c3cccc(Cl)c3)CC2)c(C)n1C | 35.5 µM [rising, single point] | 25.1 µM [rising, single point]
25 | Cc1cc(=O)[nH]c(SCC(=O)c2ccc(C)c(C)c2)n1 | 35.5 µM [rising, single point] | 35.5 µM [rising, single point]
26 | Cc1ccc(C)c(OCCn2cc(/C=C(/C#N)C(=O)NCC3CCCO3)c3ccccc32)c1 (stereo not drawn) | 35.5 µM [rising, single point] | 
27 | Cc1ccc(C(=O)CC(=O)COc2ccc(Cl)cc2C)cc1 | 35.5 µM [rising, single point] | 

Random excerpt: 2 records from the list.
Row | SMILES | AC50 [1] | AC50 [2]
21 | COc1c(N2CCN(C(=S)NCc3ccccc3)C(C)C2)c(F)cc2c(=O)c(C(=O)O)cn(C3CC3)c12 (stereo not drawn) | 14.1 µM [rising, single point] | 
11 | Cc1ccc(-c2nc(-c3cccnc3)sc2CC(=O)Nc2ccc(C)c(Cl)c2)cc1 | 22.4 µM [rising, single point] | 14.1 µM [rising, single point]
